The values that follow come from paper PMC7542178.

The assay has as its target T1, biotinylated scrambled N-NAM.
T1 sequence (peptide, biotinylated (site not stated)): GLIRWNRPPRNP
The assay can be described thus: pull-down; HUVECs (methods: HUVEC lysates) incubated with bt-N-NAM (25-500 nM) or bt-scN-NAM (200 nM) for 3 h; streptavidin agarose beads 24 h at 4 °C; immunoblot with anti-Ninj1; only the target purified. A general note: In western blotting, separated proteins are transferred to a membrane and probed.

These are yes or no findings as the source states them, for the method shown. Binding seen in cells or lysates may run through a third protein.

B1: Nerve injury-induced protein 1 (Ninjurin 1), endogenous in HUVECs (protein, UniProt Q92982 1-152)
chain: MDSGTEEYELNGGLPPGTPGSPDASPARWGWRHGPINVNHYASKKSAAESMLDIALLMANASQLKAVVEQGPSFAFYVPLVVLISISLVLQIGVGVLLIFLVKYDLNNPAKHAKLDFLNNLATGLVFIIVVVNIFITAFGVQKPLMDMAPQQ
For the molecule B1, the binding entry is listed as “no binding (tested: 200 nM)”.
